Measurements published in paper PMC8619003.
These are yes or no findings as the source states them, for the method shown. In cells and extracts the contact can be indirect. Some results given as binding are weak or reduced against the parent protein; the word gives no strength.

Sequences of proteins named here, by UniProt entry; tags and fusion partners are left off.
UniProt P15531: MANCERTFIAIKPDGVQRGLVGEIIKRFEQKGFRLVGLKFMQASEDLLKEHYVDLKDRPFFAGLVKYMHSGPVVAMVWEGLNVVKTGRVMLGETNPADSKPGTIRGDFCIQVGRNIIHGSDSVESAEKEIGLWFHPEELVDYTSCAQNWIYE

Target: NME1 (nucleoside diphosphate kinase A), endogenous in U937 cells (human (endogenous in U937)) (UniProt P15531)
Assay: co-IP; U937 cells lysed under non-denaturing conditions; 500 ug total lysate protein, IP with anti-NME1, immunoblot for ST8SIA1 and NME1; beads only (IgG) as control

binding: binds
B1: ST8SIA1 (ST8 alpha-N-acetyl-neuraminide alpha-2,8-sialyltransferase 1), endogenous in U937 cells (protein, UniProt Q92185 1-356)
chain: MSPCGRARRQTSRGAMAVLAWKFPRTRLPMGASALCVVVLCWLYIFPVYRLPNEKEIVQGVLQQGTAWRRNQTAARAFRKQMEDCCDPAHLFAMTKMNSPMGKSMWYDGEFLYSFTIDNSTYSLFPQATPFQLPLKKCAVVGNGGILKKSGCGRQIDEANFVMRCNLPPLSSEYTKDVGSKSQLVTANPSIIRQRFQNLLWSRKTFVDNMKIYNHSYIYMPAFSMKTGTEPSLRVYYTLSDVGANQTVLFANPNFLRSIGKFWKSRGIHAKRLSTGLFLVSAALGLCEEVAIYGFWPFSVNMHEQPISHHYYDNVLPFSGFHAMPEEFLQLWYLHKIGALRMQLDPCEDTSLQPTS
